# PubChem BioAssay AID1259254, NCATS, 2017
# Test: 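Finding genes that stop cells copying their DNA twice in one cycle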 (primary screen)
# Cell system: human HCT116 colorectal cancer cells
# Knock-down reagent: single siRNA against human genes
# Time to read-out: 3 days
# Measured: 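Nuclei stained with Hoechst and imaged; cell-cycle phase assigned by DNA content; G2 share scaled per plate, non-targeting siRNA 0%, GMNN siRNA 100%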
# Reading the numbers: G2 robust z-score and G2 cells, % of GMNN control: higher = more G2 cells, more excess DNA replication; raw share of cells in G2: higher = larger share of cells with G2 DNA content
# Call rule: 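Active siRNAs have a G2 robust z of 5 or more median absolute deviations over the median, which in these data means about 38% or higher of GMNN control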
# This is one part, drawn at random, of about 59,000 reagents tested. Of all reagents, about 1,550 (2.6%) got an active call. 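G2 share is only a proxy for re-replication; each gene was hit by three separate siRNAs, and active genes were retested.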 Raw values are not corrected between plates. The record does not give: the amount of reagent.
gene,PubChem SID,G2 robust z-score,"G2 cells, % of GMNN control",raw share of cells in G2 (%),Call
TCF12,SID160717812,0.822,8.75,8.02,inactive
TCF12,SID160717814,-1.04,-4.34,2.7,inactive
TCF12,SID160717815,-0.487,-0.461,4.82,inactive
OR10V1,SID160766447,3.43,27.1,13.1,inactive
OR10V1,SID160766448,1.05,10.4,7.92,inactive
OR10V1,SID160766450,0.83,8.8,8.41,inactive
PHF12,SID160746493,2.81,22.7,10.8,inactive
PHF12,SID160746494,1.69,14.8,12.6,inactive
PHF12,SID160746495,0.0429,3.27,4.66,inactive
RNASE8,SID160730573,1.23,11.6,8.88,inactive
RNASE8,SID160756000,-0.967,-3.83,3.32,inactive
RNASE8,SID160756001,-0.86,-3.09,4.24,inactive
KLC1,SID160776324,-0.692,-1.9,4.35,inactive
KLC1,SID160776327,0.266,4.84,7.52,inactive
KLC1,SID160776328,-0.133,2.03,4.95,inactive
LRRC43,SID160762142,-0.435,-0.0923,3.54,inactive
LRRC43,SID160762143,-0.141,1.98,3.81,inactive
LRRC43,SID160762144,3.09,24.7,11.1,inactive
UNC13B,SID160728582,-1.57,-8.06,3.3,inactive
UNC13B,SID160728583,0.149,4.02,5.14,inactive
UNC13B,SID160728584,-0.653,-1.63,4.99,inactive
MYBBP1A,SID160728615,1.33,12.3,11.3,inactive
MYBBP1A,SID160728616,-0.71,-2.03,4.81,inactive
MYBBP1A,SID160728617,0.691,7.83,6.37,inactive
G0S2,SID160733471,0.807,8.64,5.98,inactive
G0S2,SID160739599,-0.048,2.63,4.86,inactive
G0S2,SID160739603,-0.619,-1.39,4.02,inactive

The list goes on; the last 3 above are carried over.
gene,PubChem SID,G2 robust z-score,"G2 cells, % of GMNN control",raw share of cells in G2 (%),Call
G0S2,SID160733471,0.807,8.64,5.98,inactive
G0S2,SID160739599,-0.048,2.63,4.86,inactive
G0S2,SID160739603,-0.619,-1.39,4.02,inactive
CYP1B1-AS1,SID160763508,1.32,12.3,8.11,inactive
CYP1B1-AS1,SID160763509,-0.112,2.18,3.89,inactive
CYP1B1-AS1,SID160763511,2.64,21.5,9.81,inactive
CXCL14,SID160722476,2.76,22.4,15.4,inactive
CXCL14,SID160722477,0.414,5.88,6.4,inactive
CXCL14,SID160722478,-0.588,-1.17,2.98,inactive
DNLZ,SID160726714,-0.919,-3.5,1.64,inactive
DNLZ,SID160734364,-0.623,-1.42,3.06,inactive
DNLZ,SID160771847,-0.548,-0.886,3.21,inactive
MLXIP,SID160732492,0.631,7.41,7.89,inactive
MLXIP,SID160732501,-0.00718,2.92,5.34,inactive
MLXIP,SID160732512,0.328,5.28,5.15,inactive
SNX14,SID160745861,0.166,4.13,7.36,inactive
SNX14,SID160745862,-0.187,1.65,4.93,inactive
SNX14,SID160745863,2.17,18.2,10.8,inactive
GPR149,SID160764797,0.381,5.65,6.92,inactive
GPR149,SID160764798,0.938,9.57,8.33,inactive
GPR149,SID160764799,0.373,5.59,6,inactive
GPR31,SID160723806,1.36,12.5,8.9,inactive
GPR31,SID160723807,0.314,5.18,4.86,inactive
GPR31,SID160773533,3.99,31,16.9,inactive
